The values that follow come from paper PMC8888459.

No constants are given. Whether binding was seen depends on the method and setting. Binding seen in cells or lysates may run through a third protein. A yes stands for co-enrichment or nearness to the bait. Other partners may have been found. Sequences can lack the tags named with a protein.

This test concerns the target T1, Nfs1 with an N-terminal polyhistidine tag (S. cerevisiae) (UniProt P25374).
T1 sequence: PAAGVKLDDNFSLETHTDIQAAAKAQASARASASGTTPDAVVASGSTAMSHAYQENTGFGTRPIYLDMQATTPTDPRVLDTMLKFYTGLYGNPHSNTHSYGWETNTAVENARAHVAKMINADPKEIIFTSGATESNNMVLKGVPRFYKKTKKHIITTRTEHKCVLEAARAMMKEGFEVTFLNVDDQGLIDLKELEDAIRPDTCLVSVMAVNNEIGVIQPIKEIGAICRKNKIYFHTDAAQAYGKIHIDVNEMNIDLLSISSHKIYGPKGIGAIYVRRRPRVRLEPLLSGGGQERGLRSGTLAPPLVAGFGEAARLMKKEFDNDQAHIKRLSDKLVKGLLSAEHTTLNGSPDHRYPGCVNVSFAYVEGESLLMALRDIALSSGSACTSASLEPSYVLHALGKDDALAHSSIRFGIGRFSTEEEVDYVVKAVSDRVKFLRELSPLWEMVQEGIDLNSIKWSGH
Kind of test: co-purification of coexpressed proteins, mass spectrometry of gel bands; Nfs1 (N-terminal polyhistidine tag) and Isd11 coexpressed in E. coli BL21-CodonPlus and purified as a complex; E. coli ACP identified in the preparation by LC-MS/MS of gel pieces.

B1: Isd11 (protein, UniProt Q6Q560 1-94)
chain: MPGFTAPTRRQVLSLYKEFIKNANQFNNYNFREYFLSKTRTTFRKNMNQQDPKVLMNLFKEAKNDLGVLKRQSVISQMYTFDRLVVEPLQGRKH
In the case of B1, the binding entry is on record as “binds”.
